According to PubChem BioAssay AID1671190 (National Center for Advancing Translational Sciences (NCATS), 2021):
In all, about 580,000 compounds went through this assay and about 6,100 (1.1%) were called active. Inconclusive means that the source gave no clear call. Such entries were picked first, then a sample of the others. Calls follow the shape of the dose curve; as a rule, active = well fitted inhibition curve with a large enough effect; inconclusive = small, poorly fitted or top-dose-only effect, or another doubt; inactive = no such curve, though single readings can be large or run the other way. Where the call is inconclusive, the potency comes from a doubtful curve fit.
% is scaled to controls: 0 for no effect and ±100 for the full control effect; potency is read from the fitted curve at half-maximal effect.

Chains of the proteins cited; added tags and fusions are not shown. Lines headed by an entry give the natural chain unless they say otherwise; changes in a name come on top.
UniProt P18054: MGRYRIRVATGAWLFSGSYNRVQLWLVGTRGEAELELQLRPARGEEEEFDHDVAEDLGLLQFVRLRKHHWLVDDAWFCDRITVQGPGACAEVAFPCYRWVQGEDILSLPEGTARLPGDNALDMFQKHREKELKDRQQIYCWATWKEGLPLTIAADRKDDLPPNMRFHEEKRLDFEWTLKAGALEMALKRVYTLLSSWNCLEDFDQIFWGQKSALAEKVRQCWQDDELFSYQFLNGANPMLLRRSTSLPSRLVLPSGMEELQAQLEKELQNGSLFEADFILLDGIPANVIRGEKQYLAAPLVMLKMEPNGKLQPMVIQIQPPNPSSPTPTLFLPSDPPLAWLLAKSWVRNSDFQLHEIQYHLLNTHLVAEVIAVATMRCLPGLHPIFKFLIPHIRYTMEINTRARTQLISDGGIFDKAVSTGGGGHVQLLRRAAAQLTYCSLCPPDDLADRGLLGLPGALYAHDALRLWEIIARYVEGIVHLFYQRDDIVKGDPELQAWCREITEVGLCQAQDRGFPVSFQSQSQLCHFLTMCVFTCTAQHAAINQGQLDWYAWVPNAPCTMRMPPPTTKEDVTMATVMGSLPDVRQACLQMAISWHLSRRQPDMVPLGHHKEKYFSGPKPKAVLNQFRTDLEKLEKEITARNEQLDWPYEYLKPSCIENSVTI

What follows are compounds tested against Polyunsaturated fatty acid lipoxygenase ALOX12 (Homo sapiens) (UniProt P18054) (assay: Primary qHTS assay for inhibitors of human arachidonate 12S-lipoxygenase (ALOX12): Round 2). Conditions: purified 12hLO, xylenol orange hydroperoxide absorbance; activity change, negative = inhibition: at 108 µM (top of the series) unless noted.
Summary of the method: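 Hydroperoxide product was detected by ferrous iron/xylenol orange as the 573 to 405 nm absorbance ratio. Arachidonic acid at 40 uM (final) was turned over for 30 min at room temperature by 150 nM human 12hLO, pH 7.0 Hepes buffer, after 15 min compound preincubation.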
With `O=C(c1ccccc1)N(c1ccccc1)c1ccccc1O` the Potency was inconclusive: 141 µM [inhibitor, partial curve, poor fit].
For `Cc1cccc(NC(=O)c2cccc(C(=O)Nc3cccc(C)c3C)n2)c1C`, the Potency was active: 3.16 µM.
In the case of `COc1ccccc1C(c1nnnn1CC1CCCO1)N1CCC(C(N)=O)CC1` (stereo unspecified), the Potency is reported as inconclusive: 4.47 µM [inhibitor, partial curve].
With `CN(C)c1nc(N)nc2c1ncn2C1OC(CO)CC1O` (stereo unspecified) the Potency was “inactive”.
In the case of `COc1ccc(OCC(=O)NCc2ccc3c(c2)CCN3C(=O)c2cccc(C)c2)cc1`, the Potency is reported as “inactive”.
In the case of `O=C(CCCN1CCC(NC(=O)c2ccccc2)CC1)c1ccc(Cl)cc1`, the Potency is reported as inconclusive: 112 µM [inhibitor, single point].
`O=C(c1cccnc1OC1CCN(S(=O)(=O)Cc2ccccc2)C1)N1CCOCC1` (stereo unspecified) was tested, and the Potency was “inactive”.
For `O=[N+]([O-])c1ccccc1CNC1CCCc2ccccc21` (stereo unspecified), the Potency was inconclusive: 2.24 µM [inhibitor, full curve, poor fit].
`CC(NC1CC1)c1ccc2ccccc2c1` (stereo unspecified) was tested, and the Potency was inconclusive: 50.1 µM [inhibitor, partial curve, poor fit].
For `CN(CCCc1[nH]nc(N)c1C#N)c1nc(-c2ccncc2)nc2ccccc12`, the Potency was “inactive”.
In the case of `Cc1cccc(-c2nc(Nc3ccc(O)cc3)c3ccccc3n2)c1`, the Potency is reported as inconclusive: 89.1 µM [inhibitor, single point].
In the case of `CCc1cccc(NC(=O)CC(c2ccc(OC)cc2)N2Cc3ccccc3C2=O)c1` (stereo unspecified), the activity change, negative = inhibition is reported as inconclusive: -36.1% [inhibitor].
In the case of `O=C(c1ccc2c(c1)OCO2)N1CCCC2(C1)NC(=O)N(Cc1ccc(Cl)cc1)C2=O` (stereo unspecified), the Potency is reported as inconclusive: 12.6 µM [inhibitor, full curve].
`CN(Cc1c(F)cccc1Cl)C(=O)CNC(=O)c1sc2ccccc2c1Cl` was tested, and the Potency was inconclusive: 35.5 µM [inhibitor, single point].
For `COc1cc(OC)cc(C(=O)NC(=S)N2CCCCCC2)c1`, the Potency was “inactive”.
In the case of `CCOc1cc(OCC)cc(C(=O)NCCN2CCC(n3c(=O)[nH]c4ccccc43)CC2)c1`, the Potency is reported as “inactive”.
In the case of `C(=N\Nc1ccccc1)/c1ccc(OCc2ccccc2)cc1`, the Potency is reported as inconclusive: 0.447 µM [inhibitor, full curve, poor fit].
In the case of `CCN(CC)S(=O)(=O)c1cccc(-c2n[nH]c(=S)n2/N=C/c2ccc(OC)cc2)c1`, the Potency is reported as inconclusive: 39.8 µM [inhibitor, partial curve].
`O=C(c1ccc(F)cc1)N1c2ccccc2-n2c(nc3ccccc32)C1CCc1ccccc1` (stereo unspecified) was tested, and the Potency was “inactive”.
With `O=C1/C(=C/c2ccc(F)cc2)SC(=S)N1Nc1ncc(C(F)(F)F)cc1Cl` the Potency was inconclusive: 100 µM [inhibitor, single point].
For `Cc1ccc(-c2ccc(N)cc2)o1`, the Potency was inconclusive: 70.8 µM [inhibitor, single point].
For `S=C(NCc1cccs1)Nc1ccc(Br)cc1Cl`, the Potency was inconclusive: 50.1 µM [inhibitor, partial curve, poor fit].
With `Cc1nc2cnc(Oc3ccccc3)nc2n(Cc2cccs2)c1=O` the Potency was inconclusive: 79.4 µM [inhibitor, partial curve, poor fit].
For `COc1ccccc1C1CCN(C(=O)C2CCCCC2)CC1`, the Potency was inconclusive: 2.82 µM [inhibitor, full curve, poor fit].
`O=C(Cn1c(=O)oc2ccccc21)N1CCC2(CC1)NCCc1c2[nH]c2ccccc12` was tested, and the Potency was inconclusive: 10 µM [inhibitor, full curve].
With `CCCN(CC(F)(F)F)C(=O)c1[nH]c(C)c(C(=O)OC)c1C` the Potency was inconclusive: 3.55 µM [inhibitor, full curve, poor fit].
`CC(C)[C@H](NC(=O)[C@@H]1CSC2c3ccccc3C(=O)N21)C(=O)NCC1CCCO1` (stereo partly specified) was tested, and the Potency was inconclusive: 141 µM [inhibitor, partial curve, poor fit].
With `CC(C)c1noc(-c2cn(C3CCCN(C(=O)c4ccc(F)cc4Cl)C3)nn2)n1` (stereo unspecified) the Potency was “inactive”.
`CN1[C@@H](CCC(=O)NCc2cccs2)CNC(=O)[C@@H]2[C@H]1CCN2Cc1nc2ccccc2n1C` was tested, and the Potency was “inactive”.
With `Cc1noc(-c2ccc3c(c2)OCO3)c1C(=O)NCCSCc1ccccc1` the Potency was active: 20 µM.
`O=C(c1ccc(Cl)cc1)N1CC2(CCN(CC3CC3)C2)Cc2ccccc21` (stereo unspecified) was tested, and the activity change, negative = inhibition was inactive: 11% [at 6.33 µM].
With `c1nc(NCC2CCCO2)c2[nH]cnc2n1` (stereo unspecified) the Potency was “inactive”.
With `Cc1cc(O)c2c(C)c(CC(=O)NCCN3CCOCC3)c(=O)oc2c1` the Potency was “inactive”.
In the case of `c1ccc(COCC2CCNCC2)cc1`, the Potency is reported as “inactive”.
`CC1(C(=O)NS(=O)(=O)c2ccc(Cl)s2)CCN1C(=O)C1(c2ccc(Cl)cc2)CCC1` (stereo unspecified) was tested, and the Potency was inconclusive: 11.2 µM [inhibitor, partial curve, poor fit].
In the case of `Cc1ccc(CNC(=O)C2(C)CCCCC(=O)N2)o1` (stereo unspecified), the Potency is reported as “inactive”.
With `O=C1c2ccccc2NC(c2ccc3c(c2)OCO3)N1O` (stereo unspecified) the Potency was inconclusive: 2.82 µM [inhibitor, full curve, poor fit].
`COc1cc2cc(CN(CCO)S(=O)(=O)c3ccccc3)c(=O)[nH]c2cc1OC` was tested, and the Potency was inconclusive: 5.01 µM [inhibitor, full curve, poor fit].
In the case of `CCN1C(=O)/C(=C/c2ccc(C)o2)N(C)C1=S`, the Potency is reported as inconclusive: 44.7 µM [inhibitor, partial curve, poor fit].
`O=C(/C=C/c1ccco1)N(Cc1cccs1)Cc1cccs1` was tested, and the Potency was active: 8.91 µM.
`N#Cc1nc(-c2ccc(S(=O)(=O)N3CCCCCC3)cc2)oc1NCc1ccc2c(c1)OCO2` was tested, and the Potency was “inactive”.
`Cc1ccc(C(=O)NCCn2ccc3ccccc32)cc1[N+](=O)[O-]` was tested, and the Potency was “inactive”.
`C/C(=N\Nc1ccc([N+](=O)[O-])cc1)c1ccc(C)cc1C` was tested, and the activity change, negative = inhibition was inconclusive: -62.8% [inhibitor].
With `C=CCNc1nc2c3ccccc3n(C(C)=O)c2s1` the Potency was inconclusive: 44.7 µM [inhibitor, partial curve, poor fit].
`Cc1cc2c(c(=O)o1)[C@@]1(C(=O)N(C)c3ccccc31)C1=C(CC3(CCCCC3)OC1=O)O2` was tested, and the activity change, negative = inhibition was inconclusive: -31% [inhibitor].
`CCN1CCN(c2cc(C)c3cc(NC(=O)c4cc(Cl)ccc4OC)ccc3n2)CC1` was tested, and the Potency was inconclusive: 141 µM [inhibitor, single point].
